Results published in article PMC6039025.
These are yes or no findings as the source states them, for the method shown. Some entries that bind do so weakly or less than the wild type. Where a sequence is shown, tags or fusion partners need not be part of it.

Target: T1, Smc4 (wild-type), 3xStrepTagII-tagged (S. cerevisiae), Q12267
T1 chain: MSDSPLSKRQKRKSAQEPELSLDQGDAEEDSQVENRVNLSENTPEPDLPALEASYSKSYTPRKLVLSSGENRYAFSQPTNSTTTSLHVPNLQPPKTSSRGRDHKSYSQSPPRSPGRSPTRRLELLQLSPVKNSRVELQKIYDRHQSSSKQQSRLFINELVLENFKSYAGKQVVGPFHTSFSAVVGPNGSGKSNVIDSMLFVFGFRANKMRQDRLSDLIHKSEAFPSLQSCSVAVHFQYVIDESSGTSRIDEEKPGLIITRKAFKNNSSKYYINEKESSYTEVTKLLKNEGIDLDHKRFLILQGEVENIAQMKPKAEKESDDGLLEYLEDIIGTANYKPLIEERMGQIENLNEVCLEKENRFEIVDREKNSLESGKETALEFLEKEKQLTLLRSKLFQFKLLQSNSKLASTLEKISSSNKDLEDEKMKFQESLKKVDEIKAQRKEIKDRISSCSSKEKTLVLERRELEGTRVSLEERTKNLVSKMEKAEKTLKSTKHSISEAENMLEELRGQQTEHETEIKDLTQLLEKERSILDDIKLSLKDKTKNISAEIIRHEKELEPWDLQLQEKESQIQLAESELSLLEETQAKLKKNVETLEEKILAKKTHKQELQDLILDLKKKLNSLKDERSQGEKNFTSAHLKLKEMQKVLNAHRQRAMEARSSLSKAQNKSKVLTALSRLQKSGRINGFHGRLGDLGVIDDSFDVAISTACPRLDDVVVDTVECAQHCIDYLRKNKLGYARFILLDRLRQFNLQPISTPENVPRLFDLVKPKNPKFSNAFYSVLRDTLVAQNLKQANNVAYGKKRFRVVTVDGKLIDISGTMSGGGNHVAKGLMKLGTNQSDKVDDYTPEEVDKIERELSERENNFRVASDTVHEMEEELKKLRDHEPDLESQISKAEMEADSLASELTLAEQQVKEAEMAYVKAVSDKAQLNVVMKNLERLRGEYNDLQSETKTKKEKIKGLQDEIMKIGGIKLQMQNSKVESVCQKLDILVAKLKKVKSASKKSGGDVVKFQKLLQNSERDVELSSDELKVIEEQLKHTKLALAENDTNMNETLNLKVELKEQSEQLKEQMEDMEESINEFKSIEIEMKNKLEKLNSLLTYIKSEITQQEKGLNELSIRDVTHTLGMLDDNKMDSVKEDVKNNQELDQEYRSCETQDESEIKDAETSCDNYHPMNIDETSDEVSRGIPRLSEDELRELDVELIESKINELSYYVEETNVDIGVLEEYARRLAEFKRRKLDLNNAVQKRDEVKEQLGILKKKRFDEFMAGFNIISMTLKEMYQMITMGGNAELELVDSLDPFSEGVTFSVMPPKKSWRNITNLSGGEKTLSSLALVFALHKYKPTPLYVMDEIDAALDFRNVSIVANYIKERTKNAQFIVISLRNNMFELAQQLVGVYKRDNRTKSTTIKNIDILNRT
Assay: tandem affinity co-purification (Ni-NTA, Strep-Trap) + SEC; five condensin subunits co-overexpressed in yeast; extract in 500 mM NaCl, 10 mM Tris-HCl pH 8.0, 10% glycerol; Ni-NTA (His tags on Brn1 and Ycg1), then Strep-Trap HP (3xStrepTagII on Smc4), then Superose 6 10/300 in 200 mM NaCl, 50 mM Tris-HCl pH 8.0; subunits seen by SDS-PAGE and Coomassie staining
Conditions: remark: other sources report otherwise

binding: binds
B1: Ycg1-3xFLAG-9xHIS, Q06680 1-1035 (protein)
chain: MQDPDGIDINTKIFNSVAEVFQKAQGSYAGHRKHIAVLKKIQSKAVEQGYEDAFNFWFDKLVTKILPLKKNEIIGDRIVKLVAAFIASLERELILAKKQNYKLTNDEEGIFSRFVDQFIRHVLRGVESPDKNVRFRVLQLLAVIMDNIGEIDESLFNLLILSLNKRIYDREPTVRIQAVFCLTKFQDEEQTEHLTELSDNEENFEATRTLVASIQNDPSAEVRRAAMLNLINDNNTRPYILERARDVNIVNRRLVYSRILKSMGRKCFDDIEPHIFDQLIEWGLEDRELSVRNACKRLIAHDWLNALDGDLIELLEKLDVSRSSVCVKAIEALFQSRPDILSKIKFPESIWKDFTVEIAFLFRAIYLYCLDNNITEMLEENFPEASKLSEHLNHYILLRYHHNDISNDSQSHFDYNTLEFIIEQLSIAAERYDYSDEVGRRSMLTVVRNMLALTTLSEPLIKIGIRVMKSLSINEKDFVTMAIEIINDIRDDDIEKQEQEEKIKSKKINRRNETSVDEEDENGTHNDEVNEDEEDDNISSFHSAVENLVQGNGNVSESDIINNLPPEKEASSATIVLCLTRSSYMLELVNTPLTENILIASLMDTLITPAVRNTAPNIRELGVKNLGLCCLLDVKLAIDNMYILGMCVSKGNASLKYIALQVIVDIFSVHGNTVVDGEGKVDSISLHKIFYKVLKNNGLPECQVIAAEGLCKLFLADVFTDDDLFETLVLSYFSPINSSNEALVQAFAFCIPVYCFSHPAHQQRMSRTAADILLRLCVLWDDLQSSVIPEVDREAMLKPNIIFQQLLFWTDPRNLVNQTGSTKKDTVQLTFLIDVLKIYAQIEKKEIKKMIITNINAIFLSSEQDYSTLKELLEYSDDIAENDNLDNVSKNALDKLRNNLNSLIEEINERSETQTKDENNTANDQYSSILGNSFNKSSNDTIEHAADITDGNNTELTKTTVNISAVDNTTEQSNSRKRTRSEAEQIDTSKNLENMSIQDTSTVAKNVSFVLPDEKSDAMSIDEEDKDSESFSEVC
